For data set [1], the target named is NFY (NFYA subunit identified) (Homo sapiens (HeLa nuclear extract, HeLaScribe)) (UniProt P23511). The data set can be described thus: EMSA supershift (anti-NFYA) and self-competition. To be noted: HeLa nuclear extract; 10 mM Tris-HCl pH 7.0, 50 mM KCl; likely ug) poly dI-dC, 5% glycerol, 1 mM EDTA, 1 mM DTT; 6 ug HeLa nuclear extract, 10 fmol probe, 4 °C; protein in an …. For orientation: In EMSA bound probe runs differently from free probe, usually more slowly.

The chains behind the UniProt entries cited, without tags or fusion partners.
UniProt P23511, whole entry: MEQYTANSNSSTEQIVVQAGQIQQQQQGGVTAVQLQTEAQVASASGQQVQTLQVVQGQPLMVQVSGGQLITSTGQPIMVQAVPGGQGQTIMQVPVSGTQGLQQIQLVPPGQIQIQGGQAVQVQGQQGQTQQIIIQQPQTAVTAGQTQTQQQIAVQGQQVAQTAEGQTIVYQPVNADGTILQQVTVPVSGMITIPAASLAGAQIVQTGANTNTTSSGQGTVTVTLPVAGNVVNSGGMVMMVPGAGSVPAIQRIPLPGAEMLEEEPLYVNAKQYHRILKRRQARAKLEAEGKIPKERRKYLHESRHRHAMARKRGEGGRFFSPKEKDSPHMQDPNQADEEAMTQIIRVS
UniProt P08047, whole entry: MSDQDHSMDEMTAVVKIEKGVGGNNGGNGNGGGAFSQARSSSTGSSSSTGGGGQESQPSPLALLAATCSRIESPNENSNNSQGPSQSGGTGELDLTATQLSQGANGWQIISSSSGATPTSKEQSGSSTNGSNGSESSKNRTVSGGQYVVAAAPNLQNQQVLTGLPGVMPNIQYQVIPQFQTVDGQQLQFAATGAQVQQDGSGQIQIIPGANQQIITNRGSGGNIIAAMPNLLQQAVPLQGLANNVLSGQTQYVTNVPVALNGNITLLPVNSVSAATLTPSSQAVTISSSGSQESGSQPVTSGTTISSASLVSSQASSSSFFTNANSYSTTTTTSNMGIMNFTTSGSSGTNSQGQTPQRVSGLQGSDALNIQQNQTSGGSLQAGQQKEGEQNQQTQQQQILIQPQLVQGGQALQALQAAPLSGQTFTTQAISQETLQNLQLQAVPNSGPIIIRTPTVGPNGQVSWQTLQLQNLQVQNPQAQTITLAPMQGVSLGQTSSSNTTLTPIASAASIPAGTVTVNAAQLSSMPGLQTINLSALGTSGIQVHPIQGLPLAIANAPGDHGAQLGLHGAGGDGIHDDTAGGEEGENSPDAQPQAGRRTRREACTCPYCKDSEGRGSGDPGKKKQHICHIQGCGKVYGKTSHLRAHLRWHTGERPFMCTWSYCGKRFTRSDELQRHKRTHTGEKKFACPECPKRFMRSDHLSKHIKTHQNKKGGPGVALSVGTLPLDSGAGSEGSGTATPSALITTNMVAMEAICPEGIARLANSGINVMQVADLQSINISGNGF

Data set [2] concerns the target SP1 (Homo sapiens (HeLa nuclear extract, HeLaScribe)) (UniProt P08047). Description: competition with a labelled probe. As to conditions: unlabeled competitor, capacity to compete impaired; 10 mM Tris-HCl pH 7.0, 50 mM KCl; likely ug) poly dI-dC, 5% glycerol, 1 mM EDTA, 1 mM DTT; 6 ug HeLa nuclear extract, 10 fmol probe, 4 °C; protein in an extract; label: none (unlabeled competitor).

Data set [3] has the same target. The data set can be described thus: EMSA with antibody (complex hampered by anti-SP1) and self-competition. To be noted: HeLa nuclear extract; 10 mM Tris-HCl pH 7.0, 50 mM KCl; likely ug) poly dI-dC, 5% glycerol, 1 mM EDTA, 1 mM DTT; 6 ug HeLa nuclear extract, 10 fmol probe, 4 °C; protein in an ….
Data set [4] addresses NFY (NFYA subunit identified) (Homo sapiens (HeLa nuclear extract, HeLaScribe)) (UniProt P23511). Description: competition with a labelled probe. To be noted: unlabeled competitor, capacity to compete impaired; 10 mM Tris-HCl pH 7.0, 50 mM KCl; likely ug) poly dI-dC, 5% glycerol, 1 mM EDTA, 1 mM DTT; 6 ug HeLa nuclear extract, 10 fmol probe, 4 °C; protein in an extract; label: none (unlabeled competitor).

Construct, isoform or probe ends are uncertain for at least one entry. Results from cells or extracts need not show a direct contact. For some of these results: Weaker means in comparison with the reference protein, sequence or condition of that experiment.

On to “GGAGTGAGCCAATCAGGGCACAGCCTGC (double strand) [PNPT1-CAATbox]”, for which the binding result in data set [1] is “binds”.
On to “CATCAGGCTCCGAACCACGGTCTGCGGA (double strand) [PNPT1-SP1-mut]”, for which the binding result in data set [2] is “binds more weakly”.
Take “CATCAGGCTCCGCCCCACGGTCTGCGGA (double strand) [PNPT1-SP1/NRSE]”: the binding result in data set [3] was “binds”.
Regarding “GGAGTGAGCCAAACAGGGCACAGCCTGC (double strand) [PNPT1-CAATbox-mut]”, the binding result in data set [4] was “binds more weakly”.
